Results are given in words; binding and its absence hold for the method and conditions named. In cells and extracts the contact can be indirect. A yes stands for co-enrichment or nearness to the bait. Other partners may have been found.

Drawing on doi:10.1101/2023.03.18.533280, this text covers binding for 3 molecules.

The labels stand for the following.
B1: Sterol-4-alpha-carboxylate 3-dehydrogenase (protein, UniProt Q15738 1-373)
chain: MEPAVSEPMRDQVARTHLTEDTPKVNADIEKVNQNQAKRCTVIGGSGFLGQHMVEQLLARGYAVNVFDIQQGFDNPQVRFFLGDLCSRQDLYPALKGVNTVFHCASPPPSSNNKELFYRVNYIGTKNVIETCKEAGVQKLILTSSASVIFEGVDIKNGTEDLPYAMKPIDYYTETKILQERAVLGANDPEKNFLTTAIRPHGIFGPRDPQLVPILIEAARNGKMKFVIGNGKNLVDFTFVENVVHGHILAAEQLSRDSTLGGKAFHITNDEPIPFWTFLSRILTGLNYEAPKYHIPYWVAYYLALLLSLLVMVISPVIQLQPTFTPMRVALAGTFHYYSCERAKKAMGYQPLVTMDDAMERTVQSFRHLRRVK

The assay addresses EGFP-NSP12_(P323) (SARS-CoV-2 (Wuhan sequence)) (UniProt P0DTD1). The experiment in a line: affinity purification with mass spectrometry.
On to EEF1A1 (from UniProt P68104 1-462), for which the binding entry is listed as “binds”.
The value for EEF1G (from UniProt P26641 1-437) was “binds”; that for B1 was “binds”.
